This is an account of results in paper PMC4801368, “Functional and Biochemical Characterization of Alvinella pompejana Cys-Loop Receptor Homologues” (PLoS ONE, 2016).

Each structure is given as a SMILES string.

For this data set, the system named is Alpo6-eGFP. The data set can be described thus: FSEC-based thermostability assay (FSEC-TS) of purified Alpo6-eGFP with ligands. More on the design: species or system Alvinella pompejana. As to conditions: Alpo6-eGFP purified in presence of ligand (1 mM taurine, 30 mM GABA or 100 mM glycine), heated to 65°C during 10 min vs 4°C.
Turning to `NCCCC(=O)O` [GABA, γ-aminobutyric acid], the “effect on thermal stability (fluorescent signal, oligomeric peak height)” value is listed as “did not exert these stabilizing effects”. Then `NCC(=O)O` [glycine], with “no loss of fluorescent signal”; and `NCCS(=O)(=O)O` [taurine], with “did not exert these stabilizing effects”.
